PubChem BioAssay AID743458 | Peter MacCallum Cancer Centre, 2014

- Aim: 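Find knock-downs that make vorinostat-resistant colon cancer cells sensitive again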 (follow-up of hits)
- System: human HCT116-VR colon cancer cells made resistant to vorinostat
- Reagent: single siRNA or pool against human genes, 25 nM per single siRNA
- Time to read-out: about 72 h after transfection, including 24 h of drug
- Challenge: vorinostat, 2.5 µM final, for 24 h
- Detection: 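Live-cell fluorescent viability and luminescent caspase 3/7 activity after vorinostat treatment, background subtracted, mean of duplicate plates, as fold change over mock-transfected wells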
- Scale: viability relative to mock: higher = more living cells than mock; caspase activity relative to mock: higher = more apoptosis than mock
- Active means: 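An siRNA counts as active if classed as reduced viability or as caspase activation, otherwise inactive; a hit class needed wells that remained healthy in the absence of drug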
In all, the deposit lists about 1,800 reagents; this is an unselected part. 732 of them (41%) were called active. 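Calls are per siRNA reagent; a gene was deemed confirmed only if most of its four siRNAs scored.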 Unmarked entries are inactive. The numbers tell different reagents against one gene apart. No sequences are given here.

PTGER4 (prostaglandin E receptor 4) #1
- viability relative to mock: 0.34 (active)
- caspase activity relative to mock: 1.95
- viability hit class: reduced viability
- caspase hit class: no change

PTGER4 (prostaglandin E receptor 4) #2
- viability relative to mock: 0.94
- caspase activity relative to mock: 1.02
- viability hit class: no change
- caspase hit class: no change

PTGER4 (prostaglandin E receptor 4) #3
- viability relative to mock: 0.73
- caspase activity relative to mock: 1.96
- viability hit class: no change
- caspase hit class: no change

PTGER4 (prostaglandin E receptor 4) #4
- viability relative to mock: 0.82
- caspase activity relative to mock: 1.12
- viability hit class: no change
- caspase hit class: no change

PCOLCE2 (procollagen C-endopeptidase enhancer 2) #1
- viability relative to mock: 0.96
- caspase activity relative to mock: 1.74
- viability hit class: no change
- caspase hit class: no change

PCOLCE2 (procollagen C-endopeptidase enhancer 2) #2
- viability relative to mock: 0.46 (active)
- caspase activity relative to mock: 5.72
- viability hit class: reduced viability
- caspase hit class: caspase activation

PCOLCE2 (procollagen C-endopeptidase enhancer 2) #3
- viability relative to mock: 0.66 (active)
- caspase activity relative to mock: 4.12
- viability hit class: no change
- caspase hit class: caspase activation

PCOLCE2 (procollagen C-endopeptidase enhancer 2) #4
- viability relative to mock: 0.85
- caspase activity relative to mock: 2.02
- viability hit class: no change
- caspase hit class: no change

Continued, starting with the last 2 of the part before.
PCOLCE2 (procollagen C-endopeptidase enhancer 2) #3
- viability relative to mock: 0.66 (active)
- caspase activity relative to mock: 4.12
- viability hit class: no change
- caspase hit class: caspase activation

PCOLCE2 (procollagen C-endopeptidase enhancer 2) #4
- viability relative to mock: 0.85
- caspase activity relative to mock: 2.02
- viability hit class: no change
- caspase hit class: no change

P2RX2 (purinergic receptor P2X 2) #1
- viability relative to mock: 0.83
- caspase activity relative to mock: 1.94
- viability hit class: no change
- caspase hit class: no change

P2RX2 (purinergic receptor P2X 2) #2
- viability relative to mock: 0.72 (active)
- caspase activity relative to mock: 2.62
- viability hit class: no change
- caspase hit class: caspase activation

P2RX2 (purinergic receptor P2X 2) #3
- viability relative to mock: 0.74
- caspase activity relative to mock: 0.84
- viability hit class: no change
- caspase hit class: no change

P2RX2 (purinergic receptor P2X 2) #4
- viability relative to mock: 0.68 (active)
- caspase activity relative to mock: 4.04
- viability hit class: no change
- caspase hit class: caspase activation

NPC1L1 (NPC1 like intracellular cholesterol transporter 1) #1
- viability relative to mock: 1.02
- caspase activity relative to mock: 1.4
- viability hit class: no change
- caspase hit class: no change

NPC1L1 (NPC1 like intracellular cholesterol transporter 1) #2
- viability relative to mock: 0.56 (active)
- caspase activity relative to mock: 2.91
- viability hit class: reduced viability
- caspase hit class: caspase activation

NPC1L1 (NPC1 like intracellular cholesterol transporter 1) #3
- viability relative to mock: 0.8
- caspase activity relative to mock: 1.34
- viability hit class: no change
- caspase hit class: no change

NPC1L1 (NPC1 like intracellular cholesterol transporter 1) #4
- viability relative to mock: 0.44 (active)
- caspase activity relative to mock: 4.05
- viability hit class: reduced viability
- caspase hit class: caspase activation
